Among the data in paper PMC6070541 are binding values, retold here.

By UniProt entry, the sequences of proteins in these tests, tags left out. Residues count along the entry.
UniProt P50284, residues 31-415: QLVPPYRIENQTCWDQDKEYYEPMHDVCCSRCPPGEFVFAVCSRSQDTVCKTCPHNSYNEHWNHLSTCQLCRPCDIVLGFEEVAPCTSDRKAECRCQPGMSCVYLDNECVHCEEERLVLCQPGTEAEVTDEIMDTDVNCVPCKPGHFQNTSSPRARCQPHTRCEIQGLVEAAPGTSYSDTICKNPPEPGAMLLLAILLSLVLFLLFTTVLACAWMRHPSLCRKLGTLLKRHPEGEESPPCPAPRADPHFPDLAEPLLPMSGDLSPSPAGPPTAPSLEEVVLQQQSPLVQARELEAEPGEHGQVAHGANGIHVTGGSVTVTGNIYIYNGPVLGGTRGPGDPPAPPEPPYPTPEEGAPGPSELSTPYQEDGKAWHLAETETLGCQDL

In assay [1] the target is T1, TNFR-associated factor 2 (TRAF2) (mouse (endogenous in primary LEC)) (UniProt P39429).
T1 sequence: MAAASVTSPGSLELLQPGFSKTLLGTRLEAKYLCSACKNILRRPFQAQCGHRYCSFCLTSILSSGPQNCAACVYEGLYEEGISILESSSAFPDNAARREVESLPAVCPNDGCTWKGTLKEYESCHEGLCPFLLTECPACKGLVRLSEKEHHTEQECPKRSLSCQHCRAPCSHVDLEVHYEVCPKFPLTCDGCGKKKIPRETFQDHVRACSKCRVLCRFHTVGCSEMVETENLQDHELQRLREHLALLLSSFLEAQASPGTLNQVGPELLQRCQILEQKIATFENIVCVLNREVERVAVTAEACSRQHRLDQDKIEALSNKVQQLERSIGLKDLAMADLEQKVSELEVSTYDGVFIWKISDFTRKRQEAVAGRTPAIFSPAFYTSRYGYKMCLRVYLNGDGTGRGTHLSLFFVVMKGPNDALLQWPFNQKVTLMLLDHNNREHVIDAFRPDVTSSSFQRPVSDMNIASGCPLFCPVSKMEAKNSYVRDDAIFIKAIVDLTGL
In words: co-IP; LEC pretreated with the cell-permeable peptide (20 μM), then stimulated with anti-LTβR mAb (2 μg/mL) for 10 min; LTβR complex precipitated with anti-LTβR and blotted for TRAF2 and TRAF3; loss of TRAF from the receptor complex is the read-out; only the binder purified.

In assay [2] the target is Lymphotoxin-beta receptor (LTβR) (mouse (endogenous in primary LEC)) (UniProt P50284). In words: co-IP; LEC pretreated with 50 μM NIKi (4H-isoquinoline-1,3-dione), then stimulated with anti-LTβR mAb (2 μg/mL) for 10 min; LTβR complex precipitated with anti-LTβR and blotted for TRAF2 and TRAF3.
The target is the same in assay [3]. In words: co-IP; 500 μg LEC extract with 1 μg anti-mLTβR (5G11b) overnight, protein G agarose 4 h; lysis buffer 20 mM Hepes pH 7.4, 150 mM NaCl, 0.5% Triton X-100; cells unstimulated or stimulated with anti-LTβR mAb (2 μg/mL) for 10 min; blots with anti-TRAF2, anti-TRAF3, anti-LTβR.
Assay [4] deals with T2, TNFR-associated factor 3 (TRAF3) (mouse (endogenous in primary LEC)) (UniProt Q60803).
T2 sequence: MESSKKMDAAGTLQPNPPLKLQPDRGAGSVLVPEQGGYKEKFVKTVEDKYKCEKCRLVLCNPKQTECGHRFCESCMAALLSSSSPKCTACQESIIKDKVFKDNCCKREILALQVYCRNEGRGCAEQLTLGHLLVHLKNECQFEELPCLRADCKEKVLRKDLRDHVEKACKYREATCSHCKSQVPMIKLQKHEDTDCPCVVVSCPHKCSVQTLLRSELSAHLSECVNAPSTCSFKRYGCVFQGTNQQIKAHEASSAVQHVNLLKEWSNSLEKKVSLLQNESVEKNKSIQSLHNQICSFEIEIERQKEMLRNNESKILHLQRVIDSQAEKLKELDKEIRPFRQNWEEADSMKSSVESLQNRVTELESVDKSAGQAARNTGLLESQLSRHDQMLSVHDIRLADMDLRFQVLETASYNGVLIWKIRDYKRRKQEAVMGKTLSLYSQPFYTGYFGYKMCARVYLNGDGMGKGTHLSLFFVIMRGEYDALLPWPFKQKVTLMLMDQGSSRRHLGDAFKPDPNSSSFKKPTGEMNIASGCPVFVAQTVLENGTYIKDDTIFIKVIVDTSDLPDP
In words: co-IP; LEC pretreated with the cell-permeable peptide (20 μM), then stimulated with anti-LTβR mAb (2 μg/mL) for 10 min; LTβR complex precipitated with anti-LTβR and blotted for TRAF2 and TRAF3; loss of TRAF from the receptor complex is the read-out; only the binder purified.

No constants are given. Whether binding was seen depends on the method and setting. Binding seen in cells or lysates may run through a third protein. Some binding calls cover weakened binding; strength is not graded here.

As for RQIKIWFQNRRMKWKKTPEEGAPGP [ciLT, LTβR-derived decoy peptide targeting classical NFκB signaling], in assay [1], the binding entry is “binds”.

B1: TNFR-associated factor 3 (TRAF3) (protein, UniProt Q60803 1-567)
chain: MESSKKMDAAGTLQPNPPLKLQPDRGAGSVLVPEQGGYKEKFVKTVEDKYKCEKCRLVLCNPKQTECGHRFCESCMAALLSSSSPKCTACQESIIKDKVFKDNCCKREILALQVYCRNEGRGCAEQLTLGHLLVHLKNECQFEELPCLRADCKEKVLRKDLRDHVEKACKYREATCSHCKSQVPMIKLQKHEDTDCPCVVVSCPHKCSVQTLLRSELSAHLSECVNAPSTCSFKRYGCVFQGTNQQIKAHEASSAVQHVNLLKEWSNSLEKKVSLLQNESVEKNKSIQSLHNQICSFEIEIERQKEMLRNNESKILHLQRVIDSQAEKLKELDKEIRPFRQNWEEADSMKSSVESLQNRVTELESVDKSAGQAARNTGLLESQLSRHDQMLSVHDIRLADMDLRFQVLETASYNGVLIWKIRDYKRRKQEAVMGKTLSLYSQPFYTGYFGYKMCARVYLNGDGMGKGTHLSLFFVIMRGEYDALLPWPFKQKVTLMLMDQGSSRRHLGDAFKPDPNSSSFKKPTGEMNIASGCPVFVAQTVLENGTYIKDDTIFIKVIVDTSDLPDP
For the molecule B1, the binding entry in assay [2] is recorded as “no binding (condition: cells pretreated with 50 μM NIKi)”; in assay [3] it was “binds”. For RQIKIWFQNRRMKWKKTGNIYIYNGPVL [nciLT, LTβR-derived decoy peptide targeting non-classical NFκB signaling], the binding result in assay [4] is “binds”.

B2: TNFR-associated factor 2 (TRAF2) (protein, UniProt P39429 1-501)
chain: MAAASVTSPGSLELLQPGFSKTLLGTRLEAKYLCSACKNILRRPFQAQCGHRYCSFCLTSILSSGPQNCAACVYEGLYEEGISILESSSAFPDNAARREVESLPAVCPNDGCTWKGTLKEYESCHEGLCPFLLTECPACKGLVRLSEKEHHTEQECPKRSLSCQHCRAPCSHVDLEVHYEVCPKFPLTCDGCGKKKIPRETFQDHVRACSKCRVLCRFHTVGCSEMVETENLQDHELQRLREHLALLLSSFLEAQASPGTLNQVGPELLQRCQILEQKIATFENIVCVLNREVERVAVTAEACSRQHRLDQDKIEALSNKVQQLERSIGLKDLAMADLEQKVSELEVSTYDGVFIWKISDFTRKRQEAVAGRTPAIFSPAFYTSRYGYKMCLRVYLNGDGTGRGTHLSLFFVVMKGPNDALLQWPFNQKVTLMLLDHNNREHVIDAFRPDVTSSSFQRPVSDMNIASGCPLFCPVSKMEAKNSYVRDDAIFIKAIVDLTGL
In the case of B2, the binding entry in assay [2] was “no binding (condition: cells pretreated with 50 μM NIKi)”; in assay [3], “binds”.
